Nine molecules from patent publication US12729225B2, “Non-canonical SWI/SNF complex and uses thereof” (Dana-Farber Cancer Institute, Inc., priority 2018, dated 2026) can be followed below.

The subject of this series is mSWI/SNF complexes. As to the kind of experiment: mSWI/SNF complex purification with HA-tagged baits and mass spectrometry (peptide counts). Details: species or system human.
[1] abbreviates: 293_HA-BRD7 bait purification, mass spectrometry, total peptides per co-purified protein.
The mark [2] stands for this setting: 293_HA-BRD7 bait purification, mass spectrometry, unique peptides per co-purified protein.

B1: EWSR1 (protein, UniProt Q01844 1-656, looked up)
RNA-binding protein EWS: MASTDYSTYSQAAAQQGYSAYTAQPTQGYAQTTQAYGQQSYGTYGQPTDVSYTQAQTTATYGQTAYATSYGQPPTGYTTPTAPQAYSQPVQGYGTGAYDTTTATVTTTQASYAAQSAYGTQPAYPAYGQQPAATAPTRPQDGNKPTETSQPQSSTGGYNQPSLGYGQSNYSYPQVPGSYPMQPVTAPPSYPPTSYSSTQPTSYDQSSYSQQNTYGQPSSYGQQSSYGQQSSYGQQPPTSYPPQTGSYSQAPSQYSQQSSSYGQQSSFRQDHPSSMGVYGQESGGFSGPGENRSMSGPDNRGRGRGGFDRGGMSRGGRGGGRGGMGSAGERGGFNKPGGPMDEGPDLDLGPPVDPDEDSDNSAIYVQGLNDSVTLDDLADFFKQCGVVKMNKRTGQPMIHIYLDKETGKPKGDATVSYEDPPTAKAAVEWFDGKDFQGSKLKVSLARKKPPMNSMRGGLPPREGRGMPPPLRGGPGGPGGPGGPMGRMGGRGGDRGGFPPRGPRGSRGNPSGGGNVQHRAGDWQCPNPGCGNQNFAWRTECNQCKAPKPEGFLPPPFPPPGGDRGRGGPGGMRGGRGGLMDRGGPGGMFRGGRGGDRGGFRGGRGMDRGGFGGGRRGGPGGPPGPLMEQMGGRRGGRGGPGKMDKGEHRQERRDRPY
As for B1, the Total under setting [1] is 2. Besides, the Unique under setting [2] is 2.

B2: HNRNPH2 (protein, UniProt P55795 1-449, looked up)
Heterogeneous nuclear …: MMLSTEGREGFVVKVRGLPWSCSADEVMRFFSDCKIQNGTSGIRFIYTREGRPSGEAFVELESEEEVKLALKKDRETMGHRYVEVFKSNSVEMDWVLKHTGPNSPDTANDGFVRLRGLPFGCSKEEIVQFFSGLEIVPNGMTLPVDFQGRSTGEAFVQFASQEIAEKALKKHKERIGHRYIEIFKSSRAEVRTHYDPPRKLMAMQRPGPYDRPGAGRGYNSIGRGAGFERMRRGAYGGGYGGYDDYGGYNDGYGFGSDRFGRDLNYCFSGMSDHRYGDGGSSFQSTTGHCVHMRGLPYRATENDIYNFFSPLNPMRVHIEIGPDGRVTGEADVEFATHEDAVAAMAKDKANMQHRYVELFLNSTAGTSGGAYDHSYVELFLNSTAGASGGAYGSQMMGGMGLSNQSSYGGPASQQLSGGYGGGYGGQSSMSGYDQVLQENSSDYQSNLA
B2: the Total under setting [1] is reported as 2. For the same molecule, the Unique under setting [2] was found to be 2.

B3: DAZAP1 (protein, UniProt Q96EP5 1-407, looked up)
DAZ-associated protein 1: MNNSGADEIGKLFVGGLDWSTTQETLRSYFSQYGEVVDCVIMKDKTTNQSRGFGFVKFKDPNCVGTVLASRPHTLDGRNIDPKPCTPRGMQPERTRPKEGWQKGPRSDNSKSNKIFVGGIPHNCGETELREYFKKFGVVTEVVMIYDAEKQRPRGFGFITFEDEQSVDQAVNMHFHDIMGKKVEVKRAEPRDSKSQAPGQPGASQWGSRVVPNAANGWAGQPPPTWQQGYGPQGMWVPAGQAIGGYGPPPAGRGAPPPPPPFTSYIVSTPPGGFPPPQGFPQGYGAPPQFSFGYGPPPPPPDQFAPPGVPPPPATPGAAPLAFPPPPSQAAPDMSKPPTAQPDFPYGQYAGYGQDLSGFGQGFSDPSQQPPSYGGPSVPGSGGPPAGGSGFGRGQNHNVQGFHPYRR
In turn, B3 had a Total under setting [1] of 2. Also, the Unique under setting [2] is 2.

B4: API5 (protein, UniProt Q9BZZ5 2-524, looked up)
Apoptosis inhibitor 5: PTVEELYRNYGILADATEQVGQHKDAYQVILDGVKGGTKEKRLAAQFIPKFFKHFPELADSAINAQLDLCEDEDVSIRRQAIKELPQFATGENLPRVADILTQLLQTDDSAEFNLVNNALLSIFKMDAKGTLGGLFSQILQGEDIVRERAIKFLSTKLKTLPDEVLTKEVEELILTESKKVLEDVTGEEFVLFMKILSGLKSLQTVSGRQQLVELVAEQADLEQTFNPSDPDCVDRLLQCTRQAVPLFSKNVHSTRFVTYFCEQVLPNLGTLTTPVEGLDIQLEVLKLLAEMSSFCGDMEKLETNLRKLFDKLLEYMPLPPEEAENGENAGNEEPKLQFSYVECLLYSFHQLGRKLPDFLTAKLNAEKLKDFKIRLQYFARGLQVYIRQLRLALQGKTGEALKTEENKIKVVALKITNNINVLIKDLFHIPPSYKSTVTLSWKPVQKVEIGQKRASEDTTSGSPPKKSSAGPKRDARQIYNPPSGKYSSNLGNFNYEQRGAFRGSRGGRGWGTRGNRSRGRLY
Under setting [1], B4 yielded a Total of 2. Further, the Unique under setting [2] worked out at 2.

B5: HSD17B10 (protein, UniProt Q99714 2-261, looked up)
3-hydroxyacyl-CoA …: AAACRSVKGLVAVITGGASGLGLATAERLVGQGASAVLLDLPNSGGEAQAKKLGNNCVFAPADVTSEKDVQTALALAKGKFGRVDVAVNCAGIAVASKTYNLKKGQTHTLEDFQRVLDVNLMGTFNVIRLVAGEMGQNEPDQGGQRGVIINTASVAAFEGQVGQAAYSASKGGIVGMTLPIARDLAPIGIRVMTIAPGLFGTPLLTSLPEKVCNFLASQVPFPSRLGDPAEYAHLVQAIIENPFLNGEVIRLDGAIRMQP
In turn, B5 returned a Total under setting [1] of 2. The same molecule returned a Unique under setting [2] of 2.

B6: PUF60 (protein, UniProt Q9UHX1 1-559, looked up)
Poly(U)-binding-splicing …: MATATIALQVNGQQGGGSEPAAAAAVVAAGDKWKPPQGTDSIKMENGQSTAAKLGLPPLTPEQQEALQKAKKYAMEQSIKSVLVKQTIAHQQQQLTNLQMAAVTMGFGDPLSPLQSMAAQRQRALAIMCRVYVGSIYYELGEDTIRQAFAPFGPIKSIDMSWDSVTMKHKGFAFVEYEVPEAAQLALEQMNSVMLGGRNIKVGRPSNIGQAQPIIDQLAEEARAFNRIYVASVHQDLSDDDIKSVFEAFGKIKSCTLARDPTTGKHKGYGFIEYEKAQSSQDAVSSMNLFDLGGQYLRVGKAVTPPMPLLTPATPGGLPPAAAVAAAAATAKITAQEAVAGAAVLGTLGTPGLVSPALTLAQPLGTLPQAVMAAQAPGVITGVTPARPPIPVTIPSVGVVNPILASPPTLGLLEPKKEKEEEELFPESERPEMLSEQEHMSISGSSARHMVMQKLLRKQESTVMVLRNMVDPKDIDDDLEGEVTEECGKFGAVNRVIIYQEKQGEEEDAEIIVKIFVEFSIASETHKAIQALNGRWFAGRKVVAEVYDQERFDNSDLSA
Turning to B6, the Total runs as follows: (293_HA-BRD7: HA-BRD7 bait purification, total peptide count per co-purified protein) 22; under setting [1], 2. The molecule further showed a Unique (293_HA-BRD7: HA-BRD7 bait purification, unique peptide count per co-purified protein) of 19 and a Unique under setting [2] of 2.

B7: RBM34 (protein, UniProt P42696 1-430, looked up)
RNA-binding protein 34: MALEGMSKRKRKRSVQEGENPDDGVRGSPPEDYRLGQVASSLFRGEHHSRGGTGRLASLFSSLEPQIQPVYVPVPKQTIKKTKRNEEEESTSQIERPLSQEPAKKVKAKKKHTNAEKKLADRESALASADLEEEIHQKQGQKRKNSQPGVKVADRKILDDTEDTVVSQRKKIQINQEEERLKNERTVFVGNLPVTCNKKKLKSFFKEYGQIESVRFRSLIPAEGTLSKKLAAIKRKIHPDQKNINAYVVFKEESAATQALKRNGAQIADGFRIRVDLASETSSRDKRSVFVGNLPYKVEESAIEKHFLDCGSIMAVRIVRDKMTGIGKGFGYVLFENTDSVHLALKLNNSELMGRKLRVMRSVNKEKFKQQNSNPRLKNVSKPKQGLNFTSKTAEGHPKSLFIGEKAVLLKTKKKGQKKSGRPKKQRKQK
Molecule B7 gave a Total under setting [1] of 2. The Unique under setting [2] is recorded as 2.

B8: COPB1 (protein, UniProt P53618 2-953, looked up)
Coatomer subunit beta: TAAENVCYTLINVPMDSEPPSEISLKNDLEKGDVKSKTEALKKVIIMILNGEKLPGLLMTIIRFVLPLQDHTIKKLLLVFWEIVPKTTPDGRLLHEMILVCDAYRKDLQHPNEFIRGSTLRFLCKLKEAELLEPLMPAIRACLEHRHSYVRRNAVLAIYTIYRNFEHLIPDAPELIHDFLVNEKDASCKRNAFMMLIHADQDRALDYLSTCIDQVQTFGDILQLVIVELIYKVCHANPSERARFIRCIYNLLQSSSPAVKYEAAGTLVTLSSAPTAIKAAAQCYIDLIIKESDNNVKLIVLDRLIELKEHPAHERVLQDLVMDILRVLSTPDLEVRKKTLQLALDLVSSRNVEELVIVLKKEVIKTNNVSEHEDTDKYRQLLVRTLHSCSVRFPDMAANVIPVLMEFLSDNNEAAAADVLEFVREAIQRFDNLRMLIVEKMLEVFHAIKSVKIYRGALWILGEYCSTKEDIQSVMTEIRRSLGEIPIVESEIKKEAGELKPEEEITVGPVQKLVTEMGTYATQSALSSSRPTKKEEDRPPLRGFLLDGDFFVAASLATTLTKIALRYVALVQEKKKQNSFVAEAMLLMATILHLGKSSLPKKPITDDDVDRISLCLKVLSECSPLMNDIFNKECRQSLSHMLSAKLEEEKLSQKKESEKRNVTVQPDDPISFMQLTAKNEMNCKEDQFQLSLLAAMGNTQRKEAADPLASKLNKVTQLTGFSDPVYAEAYVHVNQYDIVLDVLVVNQTSDTLQNCTLELATLGDLKLVEKPSPLTLAPHDFANIKANVKVASTENGIIFGNIVYDVSGAASDRNCVVLSDIHIDIMDYIQPATCTDAEFRQMWAEFEWENKVTVNTNMVDLNDYLQHILKSTNMKCLTPEKALSGYCGFMAANLYARSIFGEDALANVSIEKPIHQGPDAAVTGHIRIRAKSQGMALSLGDKINLSQKKTSI
B8 displayed a Total under setting [1] of 2. The Unique under setting [2] is 2.

B9: KTN1 (protein, UniProt Q86UP2 1-1357, looked up)
Kinectin: MEFYESAYFIVLIPSIVITVIFLFFWLFMKETLYDEVLAKQKREQKLIPTKTDKKKAEKKKNKKKEIQNGNLHESDSESVPRDFKLSDALAVEDDQVAPVPLNVVETSSSVRERKKKEKKQKPVLEEQVIKESDASKIPGKKVEPVPVTKQPTPPSEAAASKKKPGQKKSKNGSDDQDKKVETLMVPSKRQEALPLHQETKQESGSGKKKASSKKQKTENVFVDEPLIHATTYIPLMDNADSSPVVDKREVIDLLKPDQVEGIQKSGTKKLKTETDKENAEVKFKDFLLSLKTMMFSEDEALCVVDLLKEKSGVIQDALKKSSKGELTTLIHQLQEKDKLLAAVKEDAAATKDRCKQLTQEMMTEKERSNVVITRMKDRIGTLEKEHNVFQNKIHVSYQETQQMQMKFQQVREQMEAEIAHLKQENGILRDAVSNTTNQLESKQSAELNKLRQDYARLVNELTEKTGKLQQEEVQKKNAEQAATQLKVQLQEAERRWEEVQSYIRKRTAEHEAAQQDLQSKFVAKENEVQSLHSKLTDTLVSKQQLEQRLMQLMESEQKRVNKEESLQMQVQDILEQNEALKAQIQQFHSQIAAQTSASVLAEELHKVIAEKDKQIKQTEDSLASERDRLTSKEEELKDIQNMNFLLKAEVQKLQALANEQAAAAHELEKMQQSVYVKDDKIRLLEEQLQHEISNKMEEFKILNDQNKALKSEVQKLQTLVSEQPNKDVVEQMEKCIQEKDEKLKTVEELLETGLIQVATKEEELNAIRTENSSLTKEVQDLKAKQNDQVSFASLVEELKKVIHEKDGKIKSVEELLEAELLKVANKEKTVQDLKQEIKALKEEIGNVQLEKAQQLSITSKVQELQNLLKGKEEQMNTMKAVLEEKEKDLANTGKWLQDLQEENESLKAHVQEVAQHNLKEASSASQFEELEIVLKEKENELKRLEAMLKERESDLSSKTQLLQDVQDENKLFKSQIEQLKQQNYQQASSFPPHEELLKVISEREKEISGLWNELDSLKDAVEHQRKKNNDLREKNWEAMEALASTEKMLQDKVNKTSKERQQQVEAVELEAKEVLKKLFPKVSVPSNLSYGEWLHGFEKKAKECMAGTSGSEEVKVLEHKLKEADEMHTLLQLECEKYKSVLAETEGILQKLQRSVEQEENKWKVKVDESHKTIKQMQSSFTSSEQELERLRSENKDIENLRREREHLEMELEKAEMERSTYVTEVRELKDLLTELQKKLDDSYSEAVRQNEELNLLKAQLNETLTKLRTEQNERQKVAGDLHKAQQSLELIQSKIVKAAGDTTVIENSDVSPETESSEKETMSVSLNQTVTQLQQLLQAVNQQLTKEKEHYQVLE
B9 gave a Total under setting [1] of 2. Under setting [2], the Unique worked out at 2.
